Assay results: publication PMC3870133
These are yes or no findings as the source states them, for the method shown. Binding seen in cells or lysates may run through a third protein. A result given as binding can be weak or reduced; the word gives no strength.

The chains behind the UniProt entries cited, without tags or fusion partners. Where a name states a change or a piece, a line headed by the entry shows the natural chain unless it says otherwise.
UniProt P30561: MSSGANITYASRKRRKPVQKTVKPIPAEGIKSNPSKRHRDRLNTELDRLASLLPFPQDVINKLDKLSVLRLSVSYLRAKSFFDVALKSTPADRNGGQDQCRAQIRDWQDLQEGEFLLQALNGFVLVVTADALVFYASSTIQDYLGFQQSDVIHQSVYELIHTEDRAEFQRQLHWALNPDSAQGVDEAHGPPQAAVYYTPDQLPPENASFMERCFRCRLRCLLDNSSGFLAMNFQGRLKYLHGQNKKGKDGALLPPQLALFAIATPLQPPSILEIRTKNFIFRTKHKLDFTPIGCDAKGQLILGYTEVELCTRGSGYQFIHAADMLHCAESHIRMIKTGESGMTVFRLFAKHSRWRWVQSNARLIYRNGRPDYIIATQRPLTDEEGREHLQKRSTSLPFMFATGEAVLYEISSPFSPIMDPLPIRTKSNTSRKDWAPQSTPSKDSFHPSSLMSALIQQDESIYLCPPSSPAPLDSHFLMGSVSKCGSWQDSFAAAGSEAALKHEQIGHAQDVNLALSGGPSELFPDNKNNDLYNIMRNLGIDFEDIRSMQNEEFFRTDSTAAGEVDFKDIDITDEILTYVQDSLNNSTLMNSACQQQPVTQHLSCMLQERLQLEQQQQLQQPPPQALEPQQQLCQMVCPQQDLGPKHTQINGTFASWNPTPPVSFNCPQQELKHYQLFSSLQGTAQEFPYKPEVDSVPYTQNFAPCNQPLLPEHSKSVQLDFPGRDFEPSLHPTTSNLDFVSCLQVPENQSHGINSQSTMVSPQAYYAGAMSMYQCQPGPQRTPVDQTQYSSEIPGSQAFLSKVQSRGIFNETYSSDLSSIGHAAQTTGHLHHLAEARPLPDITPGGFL

Molecular target: aryl-hydrocarbon receptor (AHR), endogenous (mouse (endogenous in Hepa1c1c7)) (UniProt P30561)
Assay: co-IP; wild type Hepa1c1c7 supernatant (500 μg) in TTLB, anti-AHR antibody or normal rabbit IgG, protein G beads; blot with anti-Mrpl40

binding: binds
B1: mitochondrial ribosomal protein L40 (Mrpl40) (protein, UniProt Q9Z2Q5 47-206)
chain: AEPLRKKKKVDPRKDQAAKDRLKKRIRKLEKASQELIPIEDFITPVRFLDKSRQRPQEEHSPEESERRALLLKRWALFKQQEHEMERDAIRSMLEAQQEALEELKLESAELYAEAIKRDTSLFPFEKEGPHYTPPISNYQAPEGRYNDITKVYTQVEFKR
